Experimental data published in the supplement of paper PMC6078165.
The reference is the same well before dosing, and untreated signal decays as well.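 Fibroblast labels denote human fibroblasts, mainly primary ones from uterus (C12385, HUF), lung (H6013), bone (Hs27A), adrenal (HADF) and skin (WS1), plus mammary HMF and breast cancer-associated Hs343T. Cancer cells are basal-like or mesenchymal-like triple-negative breast cancer lines. A hit is a response shift exceeding 3x replicate standard deviation. The tissue of the other fibroblasts is not given here.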

System: Hs578T
Experiment: relative JC-1 red fluorescence (viability) vs pre-drug, coculture with fibroblast (fraction); higher = more viable cancer cells
Protocol: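 JC-1 labelled TNBC cells cocultured 1:1 (1,500 cells each) with CellTrace Violet stained primary or stromal fibroblasts in 384-well plates in FluoroBrite medium, treated with one of 42 anticancer drugs at 0.1, 1, 10 or 100 uM. JC-1 red fluorescence (mitochondrial integrity in cancer cells only) was read by plate reader every 8 h for 72 h. Values are normalised to each well's pre-drug value. The stock of one drug was tenfold lower, so its dose labels may be too high.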

CC(=O)O[C@@]12CO[C@@H]1C[C@H](O)[C@@]1(C)C(=O)[C@H](O)C3=C(C)[C@@H](OC(=O)[C@H](O)[C@@H](NC(=O)OC(C)(C)C)c4ccccc4)C[C@@](O)([C@@H](OC(=O)c4ccccc4)[C@H]21)C3(C)C [Docetaxel]
relative JC-1 red fluorescence
Settings | 8 h | 16 h | 24 h | 32 h | 40 h | 48 h | 56 h | 64 h | 72 h
10 µM | 0.8886 | 0.81527 | 0.7901 | 0.732 | 0.646 | 0.6 | 0.594 | 0.569 | 0.581
100 µM | 0.905 | 0.745 | 0.67 | 0.601 | 0.52 | 0.472 | 0.456 | 0.433 | 0.435

relative JC-1 red fluorescence
Settings | 8 h | 16 h | 24 h | 32 h | 40 h | 48 h | 56 h | 64 h | 72 h
10 µM, coculture fibroblast: C12385 | 0.813 | 0.762 | 0.712 | 0.61 | 0.541 | 0.513 | 0.491 | 0.49 | 0.491
10 µM, coculture fibroblast: H6013 | 0.8658 | 0.85 | 0.821 | 0.793 | 0.765 | 0.761 | 0.762 | 0.773 | 0.762
10 µM, coculture fibroblast: H6019 | 0.812 | 0.75 | 0.713 | 0.625 | 0.592 | 0.566 | 0.531 | 0.529 | 0.521
10 µM, coculture fibroblast: H6076 | 0.917 | 0.883 | 0.851 | 0.8083 | 0.7587 | 0.763 | 0.767 | 0.771 | 0.786
10 µM, coculture fibroblast: H6231 | 0.899 | 0.812 | 0.743 | 0.704 | 0.63 | 0.6149 | 0.5779 | 0.559 | 0.559
10 µM, coculture fibroblast: HADF | 0.897 | 0.858 | 0.788 | 0.703 | 0.636 | 0.604 | 0.567 | 0.548 | 0.524
10 µM, coculture fibroblast: HCFa | 0.851 | 0.804 | 0.7144 | 0.6225 | 0.553 | 0.525 | 0.497 | 0.496 | 0.483
10 µM, coculture fibroblast: HCPF | 0.926 | 0.869 | 0.7967 | 0.725 | 0.652 | 0.627 | 0.602 | 0.56 | 0.531
10 µM, coculture fibroblast: HHSteC | 0.8912 | 0.867 | 0.824 | 0.742 | 0.686 | 0.659 | 0.652 | 0.653 | 0.636
10 µM, coculture fibroblast: HMF | 0.877 | 0.8517 | 0.814 | 0.775 | 0.715 | 0.7 | 0.683 | 0.664 | 0.644
10 µM, coculture fibroblast: HPFa | 0.948 | 0.877 | 0.881 | 0.811 | 0.764 | 0.729 | 0.706 | 0.694 | 0.664
10 µM, coculture fibroblast: HUF | 0.866 | 0.765 | 0.76 | 0.648 | 0.577 | 0.552 | 0.539 | 0.541 | 0.539
10 µM, coculture fibroblast: Hs27A | 0.919 | 0.861 | 0.797 | 0.709 | 0.649 | 0.632 | 0.603 | 0.5893 | 0.5593
10 µM, coculture fibroblast: Hs343T | 0.911 | 0.837 | 0.765 | 0.711 | 0.628 | 0.6 | 0.558 | 0.544 | 0.532
10 µM, coculture fibroblast: WS1 | 0.8211 | 0.7746 | 0.766 | 0.672 | 0.619 | 0.603 | 0.569 | 0.558 | 0.555
100 µM, coculture fibroblast: C12385 | 0.845 | 0.737 | 0.658 | 0.555 | 0.4788 | 0.44788 | 0.4128 | 0.388 | 0.375
100 µM, coculture fibroblast: H6013 | 0.883 | 0.8 | 0.757 | 0.75 | 0.724 | 0.731 | 0.729 | 0.742 | 0.737
100 µM, coculture fibroblast: H6019 | 0.798 | 0.694 | 0.628 | 0.5384 | 0.489 | 0.466 | 0.449 | 0.439 | 0.428
100 µM, coculture fibroblast: H6076 | 0.905 | 0.812 | 0.729 | 0.701 | 0.64 | 0.636 | 0.618 | 0.607 | 0.605
100 µM, coculture fibroblast: H6231 | 0.885 | 0.79 | 0.7005 | 0.646 | 0.5856 | 0.5516 | 0.52 | 0.4977 | 0.486
100 µM, coculture fibroblast: HADF | 0.9214 | 0.819 | 0.767 | 0.73 | 0.677 | 0.648 | 0.61 | 0.596 | 0.566
100 µM, coculture fibroblast: HCFa | 0.851 | 0.765 | 0.71 | 0.648 | 0.58 | 0.553 | 0.522 | 0.52 | 0.501
100 µM, coculture fibroblast: HCPF | 0.913 | 0.82374 | 0.748 | 0.692 | 0.613 | 0.559 | 0.534 | 0.49132 | 0.4548
100 µM, coculture fibroblast: HHSteC | 0.893 | 0.80377 | 0.725 | 0.675 | 0.6017 | 0.574 | 0.551 | 0.541 | 0.51
100 µM, coculture fibroblast: HMF | 0.895 | 0.778 | 0.704 | 0.664 | 0.579 | 0.548 | 0.508 | 0.483 | 0.466
100 µM, coculture fibroblast: HPFa | 0.9106 | 0.877 | 0.787 | 0.727 | 0.688 | 0.647 | 0.61 | 0.596 | 0.57
100 µM, coculture fibroblast: HUF | 0.866 | 0.752 | 0.726 | 0.619 | 0.559 | 0.524 | 0.497 | 0.491 | 0.49
100 µM, coculture fibroblast: Hs27A | 0.8662 | 0.84729 | 0.79 | 0.732 | 0.649 | 0.65 | 0.63 | 0.626 | 0.591
100 µM, coculture fibroblast: Hs343T | 0.922 | 0.763 | 0.7 | 0.667 | 0.58 | 0.538 | 0.475 | 0.446 | 0.424
100 µM, coculture fibroblast: WS1 | 0.856 | 0.749 | 0.656 | 0.537 | 0.452 | 0.415 | 0.37 | 0.352 | 0.333
